Hit rate of the full screen: of about 310,000 compounds, about 11,000 (3.5%) were called active. These results got no clear call from the source, so the numbers are uncertain. Calls follow the shape of the dose curve; as a rule, active = well fitted inhibition curve with a large enough effect; inconclusive = small, poorly fitted or top-dose-only effect, or effect the other way; inactive = flat fitted curve, though single readings scatter.
Assay: VP16 counterscreen qHTS for inhibitors of ROR gamma transcriptional activity;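 also: Gal4-VP16 expression switched on by copper sulfate through the metallothionein promoter; nearly all actives have a fitted effect of over 50% in size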
Conditions: Drosophila S2 Gal4-VP16 UAS-luciferase, luminescence, 20 h
For `CC(C)c1ccc(NC2CCN(C(=O)OC(C)(C)C)CC2)cc1`, the Potency was inconclusive: 22.4 µM.
For `COc1ccc(NC2CCN(C(=O)OC(C)(C)C)CC2)cc1`, the Potency was inconclusive: 0.112 µM.
For `Cc1ccc(OCC(C)C)c(CN(CCCl)CCCl)c1`, the Potency was inconclusive: 22.4 µM.

Source: PubChem BioAssay AID2546 (National Center for Advancing Translational Sciences (NCATS), 2010)
Potency is read from the fitted curve at half-maximal effect.
